Experimental data as given in PubChem BioAssay AID434947 (Broad Institute, 2010).
Among all 2,200 compounds or so, about 15 (0.7%) were called active.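 The calls were made as follows: active = fitted half-maximal concentration for loss of luminescence signal no more than a set limit of log units above the top tested concentration; inconclusive = flat fit with 30 to 70% signal loss, or invalid fit; inactive = half-maximal concentration above that set limit.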 Some of the results follow.

experiment: inhibitors of ADP-Glo detection reagents, dose response, artefact control for GSK3beta inhibitor project, biochemical, luminescence, cell-free, homogeneous (AID 434947); conditions: 5 uM ADP;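 also: kinase-free counter screen of ADP-Glo detection reagents for GSK3beta hits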

EC50, inactive:
CN1C(N)=NC(=O)/C1=C/c1ccc(F)cc1 > 30 µM
COc1cccc(C2C3=C(CC(C)(C)CC3=O)Nc3n[nH]c(C)c32)c1 (stereo unspecified) > 30 µM
Cn1c(SCC(=O)Nc2ccc(Cl)cn2)nnc1C1CC1 > 30 µM
Cc1cccc(N2CCN(C(=O)c3csc4ccccc34)CC2C)c1 (stereo unspecified) > 30 µM
O=C(Nc1cccc2c1C(=O)NC2=O)c1cccc(N2C(=O)CCC2=O)c1 > 30 µM
O=C(Nc1ccc2c(c1)OCO2)Nc1ccccn1 > 30 µM
Cc1c(Br)c([N+](=O)[O-])nn1CC(=O)Nc1c(C)n(C)n(-c2ccccc2)c1=O > 30 µM
COc1ccc(OC)c(N=c2oc3cc(O)ccc3cc2C(N)=O)c1 > 30 µM
COc1ccc2nc3c(cc2c1)c(NC(=O)CC(C)C)nn3CC(C)C > 30 µM
Cc1ccc(C(=O)O/N=C\c2ccc(N3CCCCC3)c([N+](=O)[O-])c2)cc1 > 30 µM
O=C1CCCC2=C1C(c1cccs1)Nc1ccccc1N2 (stereo unspecified) > 30 µM
COc1ccc2occ(C(C)=O)c2c1 > 30 µM
Cn1c(=O)c2[nH]c(CCCC(=O)O)nc2n(Cc2ccccc2)c1=S > 30 µM
c1ccc2c(c1)OCC(CNCC1COc3ccccc3O1)O2 (stereo unspecified) > 30 µM
Cc1ccsc1/C=N/Nc1ncnc2nc[nH]c12 > 30 µM
CCOC(=O)CCCSc1nnc(CCCCCN2C(=O)c3cccc4cccc(c34)C2=O)o1 > 30 µM
Nc1nc(NCCCN2CCOCC2)nc(Nc2ccc(F)cc2)c1[N+](=O)[O-] > 30 µM
Nc1ncnc2c1ncn2[C@@H]1O[C@H](COP(=O)(O)O)[C@@H](O)[C@H]1O > 30 µM
COCCn1c(SCC(=O)Nc2ncc(Cl)c(C)c2Cl)nc2ccccc21 > 30 µM
N#CCCn1cc(C(CC(=O)c2ccccc2)C(=O)O)c2ccccc21 (stereo unspecified) > 30 µM
CCCCOc1ccc(/C=N/NC(=O)c2nnn(-c3nonc3N)c2CN2CCCCCC2)cc1 > 30 µM
CCc1nnc(NC(=O)c2ccc3c(=O)n4c(nc3c2)CCCCC4)s1 > 30 µM
CCOC(=O)C1=C(C)Nc2ncnn2C1c1ccc2c(c1)OCO2 (stereo unspecified) > 30 µM
COC(=O)COc1ccc2occ(C(C)=O)c2c1 > 30 µM
CCCn1nc(NC(=O)c2cccs2)c2cc3ccc(C)cc3nc21 > 30 µM
O=C(COc1ccccc1[N+](=O)[O-])N/N=C/C=C/c1ccco1 > 30 µM

Random excerpt: 2 compounds from above, in no set order.
EC50, inactive:
Cc1ccc(C(=O)O/N=C\c2ccc(N3CCCCC3)c([N+](=O)[O-])c2)cc1 > 30 µM
Cc1c(Br)c([N+](=O)[O-])nn1CC(=O)Nc1c(C)n(C)n(-c2ccccc2)c1=O > 30 µM
